This series deals with Strawberry fruit (Fragaria x ananassa CV. Albion). Kind of series: Treatment of strawberry fruit by dipping: fruit ripening. The format is in vivo. Conditions: CAD-treated, ABA-treated or mock-treated. The method, then:
Strawberry plants (Fragaria x ananassa CV. Albion) were grown in a greenhouse at 28° C. and 14-hour light/10-hour dark conditions. […] Fruits were allowed to continue growing on the plants. FIG. 1 depicts images of strawberry fruit development under standard conditions.
FIG. 2A to FIG. 2F depict images of strawberries treated with either 10 μM CAD in 0.1% TRITON X-100 surfactant; 1 mM ABA in 0.1% TRITON X-100 surfactant; or buffer (0.1% TRITON X-100 surfactant) without chemical (mock-treated). […] The CAD dosage was lower than that of ABA (10 μM vs. 1 mM), and CAD stimulated fruit ripening faster than did ABA. […] In contrast, ABA-treated fruit started to turn red 9 DAT, and reached full red 11 DAT.

SMILES strings stand for the structures.

Take `CC1=CC(=O)CC(C)(C)[C@@]1(O)/C=C/C(C)=C\C(=O)O` [ABA, abscisic acid, reference compound]: the “difference in fresh weight of strawberry fruit” value is “no difference” and the “difference in sugar content of strawberry fruit” value is on record as “no difference”.
With `CCc1cc(Br)ccc1NC(=O)c1ccn(CC)n1` [CAD, N-(4-bromo-2-ethylphenyl)-1-ethyl-1H-pyrazole-3-carboxamide], the “difference in fresh weight of strawberry fruit” value is recorded as “no difference” and the “difference in sugar content of strawberry fruit” value is “no difference”.

Values taken from patent US12582132B2, “Germination/sprouting and fruit ripening regulators” (The United States of America, as represented by the …, priority 2021, dated 2026).
